Results reported in article PMC9974993.
These are yes or no findings as the source states them, for the method shown. In cells and extracts the contact can be indirect. Some results given as binding are weak or reduced against the parent protein; the word gives no strength.

Biological target: HER2, tyrosine-autophosphorylated in BS4-induced aggregates (human (endogenous in SkBr3)) (UniProt P04626)
Assay: co-IP; SkBr3 cells, serum-free 1 h ± lapatinib (HER1/2i) or LY294002 (PI3Ki); BS4 3 ug/ml for 2.5 min; lysis in PBS, 1% NP-40 with protease and phosphatase inhibitors, lysate not clarified; BS4-HER2 aggregates captured on Protein G Dynabeads 2 h at 4 °C, five washes; western blot

B1: VAV2 (protein, UniProt P52735 1-878)
chain: MEQWRQCGRWLIDCKVLPPNHRVVWPSAVVFDLAQALRDGVLLCQLLHNLSPGSIDLKDINFRPQMSQFLCLKNIRTFLKVCHDKFGLRNSELFDPFDLFDVRDFGKVISAVSRLSLHSIAQNKGIRPFPSEETTENDDDVYRSLEELADEHDLGEDIYDCVPCEDGGDDIYEDIIKVEVQQPMIRYMQKMGMTEDDKRNCCLLEIQETEAKYYRTLEDIEKNYMSPLRLVLSPADMAAVFINLEDLIKVHHSFLRAIDVSVMVGGSTLAKVFLDFKERLLIYGEYCSHMEHAQNTLNQLLASREDFRQKVEECTLKVQDGKFKLQDLLVVPMQRVLKYHLLLKELLSHSAERPERQQLKEALEAMQDLAMYINEVKRDKETLRKISEFQSSIENLQVKLEEFGRPKIDGELKVRSIVNHTKQDRYLFLFDKVVIVCKRKGYSYELKEIIELLFHKMTDDPMNNKDVKKSHGKMWSYGFYLIHLQGKQGFQFFCKTEDMKRKWMEQFEMAMSNIKPDKANANHHSFQMYTFDKTTNCKACKMFLRGTFYQGYMCTKCGVGAHKECLEVIPPCKFTSPADLDASGAGPGPKMVAMQNYHGNPAPPGKPVLTFQTGDVLELLRGDPESPWWEGRLVQTRKSGYFPSSSVKPCPVDGRPPISRPPSREIDYTAYPWFAGNMERQQTDNLLKSHASGTYLIRERPAEAERFAISIKFNDEVKHIKVVEKDNWIHITEAKKFDSLLELVEYYQCHSLKESFKQLDTTLKYPYKSRERSASRASSRSPASCASYNFSFLSPQGLSFASQGPSAPFWSVFTPRVIGTAVARYNFAARDMRELSLREGDVVRIYSRIGGDQGWWKGETNGRIGWFPSTYVEEEGIQ
B1 was tested, and the binding was “binds”.
